From patent US20050080260A1, “Preparation of prodrugs for selective drug delivery” (priority 2003, published 2005)
For at least one compound, name, drawing or mass did not settle the structure.

Tested on: Friends Leukemia Virus (FLV)
Test: Anti-retroviral potency in a murine model (FLV-infected mice, spleen and body weight)
Type: in vivo
Settings: FLV-infected Swiss mice
Method: Evaluation Foscarnet Prodrug Anti-Retroviral Potency in a Murine Model. The effect of prodrug MTLJ-1-Foscarnet on four-week old Swiss mice infected with Friends Leukemia Virus (FLV) was tested by the Luminide Pharmaceutical Corporation. The mice were infected with FLV by an IP injection with 0.5 ml viral solution prepared by resuspending F4-6 cells (1×10^6 cells/ml) in fresh media and harvesting that media 24 hr later and filtering through a […] filter. The Foscarnet Group received 300 nanomoles of Foscarnet on days 5-9. The Carrier Group received 300 nanomoles of carrier on days 5-9. The MTLJ-1-Foscarnet Group received 300 nanomoles of MTLJ-1-Foscarnet on days 5-9. All mice were sacrificed on day 12. The spleens were removed and weighed. The toxicity of the carrier MTLJ-1 was also evaluated by the determination of its LD50.

O=C([O-])P(=O)([O-])[O-].[Na+].[Na+].[Na+] [Foscarnet, phosphonoformate, reference compound]
Spleen weights compared with control groups (in words): the same as those of the Virus Alone Group
Suppression of FLV infection in mice (in words) (significance level of 0.01, Students T test): ineffective
